# From paper PMC12975129
# Sequences of proteins named here, by UniProt entry; tags and fusion partners are left off. A change or cut given only in a name is not applied to a line headed by its entry.
# UniProt Q586J9: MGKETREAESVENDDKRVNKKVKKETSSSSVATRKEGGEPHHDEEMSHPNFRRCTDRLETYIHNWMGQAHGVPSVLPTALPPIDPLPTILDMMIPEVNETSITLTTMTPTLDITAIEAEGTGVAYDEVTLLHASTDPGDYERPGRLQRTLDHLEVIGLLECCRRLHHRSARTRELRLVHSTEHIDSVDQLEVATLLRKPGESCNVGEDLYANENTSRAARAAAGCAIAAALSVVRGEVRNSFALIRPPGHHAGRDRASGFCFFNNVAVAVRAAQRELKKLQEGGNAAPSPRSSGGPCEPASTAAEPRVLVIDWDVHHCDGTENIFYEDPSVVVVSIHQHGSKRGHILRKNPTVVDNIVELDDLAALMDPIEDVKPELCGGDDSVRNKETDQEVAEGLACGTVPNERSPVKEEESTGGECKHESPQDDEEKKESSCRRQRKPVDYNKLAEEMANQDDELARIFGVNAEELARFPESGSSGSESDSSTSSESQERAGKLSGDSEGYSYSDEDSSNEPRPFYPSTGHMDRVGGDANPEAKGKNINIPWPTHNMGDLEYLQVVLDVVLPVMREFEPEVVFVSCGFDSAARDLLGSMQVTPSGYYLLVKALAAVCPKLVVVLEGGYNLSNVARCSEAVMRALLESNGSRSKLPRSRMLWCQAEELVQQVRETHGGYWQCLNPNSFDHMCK
# UniProt Q57ZF2: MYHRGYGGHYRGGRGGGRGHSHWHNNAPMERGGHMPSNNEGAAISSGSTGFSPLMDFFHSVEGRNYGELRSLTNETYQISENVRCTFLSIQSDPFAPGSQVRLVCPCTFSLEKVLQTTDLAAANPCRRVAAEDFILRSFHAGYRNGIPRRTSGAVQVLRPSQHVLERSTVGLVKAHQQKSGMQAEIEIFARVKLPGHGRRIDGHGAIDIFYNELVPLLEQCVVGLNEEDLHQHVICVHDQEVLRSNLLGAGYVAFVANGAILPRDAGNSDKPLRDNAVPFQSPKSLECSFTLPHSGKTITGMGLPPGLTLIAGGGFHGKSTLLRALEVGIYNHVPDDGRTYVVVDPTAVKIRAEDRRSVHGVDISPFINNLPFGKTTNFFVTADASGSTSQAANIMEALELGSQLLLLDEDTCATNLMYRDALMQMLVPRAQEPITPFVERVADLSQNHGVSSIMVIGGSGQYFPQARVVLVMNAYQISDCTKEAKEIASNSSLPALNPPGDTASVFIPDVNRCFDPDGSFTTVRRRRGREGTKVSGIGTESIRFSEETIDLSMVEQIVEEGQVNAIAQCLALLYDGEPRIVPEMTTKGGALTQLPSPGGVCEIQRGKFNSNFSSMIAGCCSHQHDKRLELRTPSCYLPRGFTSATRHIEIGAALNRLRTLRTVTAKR
# UniProt O96971: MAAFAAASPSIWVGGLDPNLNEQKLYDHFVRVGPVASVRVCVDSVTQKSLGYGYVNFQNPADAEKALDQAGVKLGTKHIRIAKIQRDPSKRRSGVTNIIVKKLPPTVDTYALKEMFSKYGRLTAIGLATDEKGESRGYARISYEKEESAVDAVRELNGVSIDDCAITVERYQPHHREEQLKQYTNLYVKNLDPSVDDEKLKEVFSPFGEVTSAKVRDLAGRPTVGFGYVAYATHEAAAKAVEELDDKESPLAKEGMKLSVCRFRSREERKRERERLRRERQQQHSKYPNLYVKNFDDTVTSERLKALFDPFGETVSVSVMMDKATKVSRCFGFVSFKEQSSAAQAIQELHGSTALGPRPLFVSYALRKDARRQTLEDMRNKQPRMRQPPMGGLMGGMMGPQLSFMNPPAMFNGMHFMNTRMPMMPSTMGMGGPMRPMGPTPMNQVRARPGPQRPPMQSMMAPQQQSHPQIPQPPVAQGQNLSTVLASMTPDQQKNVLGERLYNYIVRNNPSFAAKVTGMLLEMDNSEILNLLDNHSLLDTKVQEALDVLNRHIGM
# UniProt Q38BZ3: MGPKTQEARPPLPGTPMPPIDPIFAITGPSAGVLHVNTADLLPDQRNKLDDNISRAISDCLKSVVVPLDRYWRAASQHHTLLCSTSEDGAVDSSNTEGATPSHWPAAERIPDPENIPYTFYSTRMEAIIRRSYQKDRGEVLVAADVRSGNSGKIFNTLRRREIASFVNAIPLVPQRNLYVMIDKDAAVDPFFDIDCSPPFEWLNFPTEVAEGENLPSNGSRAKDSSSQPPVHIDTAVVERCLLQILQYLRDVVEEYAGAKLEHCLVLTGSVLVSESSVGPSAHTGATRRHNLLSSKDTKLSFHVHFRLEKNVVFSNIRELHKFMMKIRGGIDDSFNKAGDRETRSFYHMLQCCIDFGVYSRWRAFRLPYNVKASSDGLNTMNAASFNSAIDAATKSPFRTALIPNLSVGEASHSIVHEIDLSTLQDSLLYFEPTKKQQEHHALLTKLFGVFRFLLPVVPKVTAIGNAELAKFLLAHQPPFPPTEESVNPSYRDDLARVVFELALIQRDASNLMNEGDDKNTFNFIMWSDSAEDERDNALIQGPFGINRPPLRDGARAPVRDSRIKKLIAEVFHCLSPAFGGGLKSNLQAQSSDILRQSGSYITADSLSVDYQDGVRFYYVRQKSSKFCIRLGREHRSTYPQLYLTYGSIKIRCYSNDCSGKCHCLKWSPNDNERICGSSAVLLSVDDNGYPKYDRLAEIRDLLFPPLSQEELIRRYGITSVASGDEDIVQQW
# UniProt Q384B5: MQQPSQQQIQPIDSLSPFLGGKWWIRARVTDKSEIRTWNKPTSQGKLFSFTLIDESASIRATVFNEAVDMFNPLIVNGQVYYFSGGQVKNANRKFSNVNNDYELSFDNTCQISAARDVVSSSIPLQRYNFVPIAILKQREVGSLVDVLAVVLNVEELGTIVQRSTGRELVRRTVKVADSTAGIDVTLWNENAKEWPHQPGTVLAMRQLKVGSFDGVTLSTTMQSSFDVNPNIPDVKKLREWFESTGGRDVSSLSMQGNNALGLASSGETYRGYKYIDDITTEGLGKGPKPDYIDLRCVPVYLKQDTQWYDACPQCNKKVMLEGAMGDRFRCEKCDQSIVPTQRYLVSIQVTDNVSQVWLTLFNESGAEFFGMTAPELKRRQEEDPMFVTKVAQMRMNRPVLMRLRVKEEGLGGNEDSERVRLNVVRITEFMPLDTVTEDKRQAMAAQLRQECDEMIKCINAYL
# UniProt Q38DK0: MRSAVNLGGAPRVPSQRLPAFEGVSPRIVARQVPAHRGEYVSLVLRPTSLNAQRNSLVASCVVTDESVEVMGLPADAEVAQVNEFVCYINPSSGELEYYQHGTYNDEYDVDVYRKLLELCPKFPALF
# UniProt Q57XY9: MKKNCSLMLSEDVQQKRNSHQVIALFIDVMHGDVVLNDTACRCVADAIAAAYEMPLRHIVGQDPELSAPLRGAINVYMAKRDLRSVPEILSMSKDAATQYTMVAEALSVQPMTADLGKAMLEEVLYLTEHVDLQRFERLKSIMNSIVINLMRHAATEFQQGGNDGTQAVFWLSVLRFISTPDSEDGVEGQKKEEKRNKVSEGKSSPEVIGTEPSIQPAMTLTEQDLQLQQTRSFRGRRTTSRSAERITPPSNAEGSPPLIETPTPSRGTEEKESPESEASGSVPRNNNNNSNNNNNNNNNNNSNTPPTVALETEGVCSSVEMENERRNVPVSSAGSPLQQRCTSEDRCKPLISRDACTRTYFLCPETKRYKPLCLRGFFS
# UniProt Q383U2: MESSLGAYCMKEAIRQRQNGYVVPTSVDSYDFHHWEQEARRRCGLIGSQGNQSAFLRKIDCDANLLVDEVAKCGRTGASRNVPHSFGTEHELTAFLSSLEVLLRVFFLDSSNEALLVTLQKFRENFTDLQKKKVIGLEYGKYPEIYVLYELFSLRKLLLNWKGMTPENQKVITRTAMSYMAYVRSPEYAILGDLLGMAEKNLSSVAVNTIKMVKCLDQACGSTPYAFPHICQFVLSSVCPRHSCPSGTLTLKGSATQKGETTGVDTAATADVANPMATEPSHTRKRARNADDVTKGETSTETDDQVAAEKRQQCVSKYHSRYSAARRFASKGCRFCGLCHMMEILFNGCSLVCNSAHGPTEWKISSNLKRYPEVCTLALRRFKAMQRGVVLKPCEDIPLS
# UniProt Q586Z9: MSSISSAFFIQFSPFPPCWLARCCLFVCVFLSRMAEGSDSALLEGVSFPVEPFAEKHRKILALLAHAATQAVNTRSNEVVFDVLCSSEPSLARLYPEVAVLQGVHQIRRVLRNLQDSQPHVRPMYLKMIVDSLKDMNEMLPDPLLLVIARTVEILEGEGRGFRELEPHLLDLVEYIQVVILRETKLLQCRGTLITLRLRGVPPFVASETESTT
# UniProt Q388B3: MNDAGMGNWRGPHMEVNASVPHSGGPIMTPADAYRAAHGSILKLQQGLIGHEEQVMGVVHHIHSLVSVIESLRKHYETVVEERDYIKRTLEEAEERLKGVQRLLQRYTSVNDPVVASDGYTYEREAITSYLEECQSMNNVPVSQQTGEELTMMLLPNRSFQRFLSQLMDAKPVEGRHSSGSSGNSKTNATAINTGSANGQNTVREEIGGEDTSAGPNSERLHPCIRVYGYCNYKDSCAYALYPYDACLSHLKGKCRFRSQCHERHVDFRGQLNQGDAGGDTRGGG
# UniProt Q388B1: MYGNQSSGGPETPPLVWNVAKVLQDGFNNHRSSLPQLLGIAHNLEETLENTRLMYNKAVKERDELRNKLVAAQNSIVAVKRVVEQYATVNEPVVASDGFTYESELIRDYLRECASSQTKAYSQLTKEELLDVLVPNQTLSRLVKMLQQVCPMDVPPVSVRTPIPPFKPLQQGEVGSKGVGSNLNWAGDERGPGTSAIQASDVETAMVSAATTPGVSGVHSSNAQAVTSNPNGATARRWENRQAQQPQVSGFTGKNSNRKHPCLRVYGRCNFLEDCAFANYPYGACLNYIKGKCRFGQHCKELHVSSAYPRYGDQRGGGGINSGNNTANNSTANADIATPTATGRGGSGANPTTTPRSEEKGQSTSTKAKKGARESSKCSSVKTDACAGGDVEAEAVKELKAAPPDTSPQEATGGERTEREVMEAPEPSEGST
# These are yes or no findings as the source states them, for the method shown. Binding seen in cells or lysates may run through a third protein. A yes stands for co-enrichment or nearness to the bait. Other partners may have been found. A no says only that the protein was not detected with the bait. Tags and fused reporters may be left off the sequences shown.
# T1: YFP-TRF (YFP-tagged T. brucei TRF telomere repeat binding protein) (T. brucei (Lister 427)) (UniProt Q4VHG6)
# T1 sequence: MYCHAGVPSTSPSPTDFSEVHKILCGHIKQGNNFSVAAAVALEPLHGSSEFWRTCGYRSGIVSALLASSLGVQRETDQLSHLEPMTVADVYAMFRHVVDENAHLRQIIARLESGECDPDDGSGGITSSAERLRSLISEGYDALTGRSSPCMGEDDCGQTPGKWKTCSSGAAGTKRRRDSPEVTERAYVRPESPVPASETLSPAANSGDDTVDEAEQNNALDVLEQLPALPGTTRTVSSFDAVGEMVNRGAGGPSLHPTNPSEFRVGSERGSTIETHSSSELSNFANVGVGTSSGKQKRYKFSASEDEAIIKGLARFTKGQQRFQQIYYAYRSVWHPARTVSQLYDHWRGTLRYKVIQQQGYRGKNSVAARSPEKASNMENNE
# Molecular target: T1, YFP-TRF (YFP-tagged T. brucei TRF telomere repeat binding protein) (T. brucei (Lister 427))
# Experiment: affinity purification with mass spectrometry; YFP-tagged bait captured on beads cross-linked to mouse anti-GFP antibody (Roche) from the soluble fraction of briefly sonicated lysate of 3.5x10^8 cells; 0.2% NP-40, 150 mM KCl; 1 hr at 4°C; three washes with lysis buffer; LC-MS/MS, enrichment relative to the No-YFP tag control; three biological replicates
row,Molecule,binding
1,HDAC3 (from UniProt Q586J9),binds
2,MRB1590 (from UniProt Q57ZF2),binds
3,PABP2 (from UniProt O96971),binds
4,PPL2 (PrimPol-Like protein 2) (from UniProt Q38BZ3),binds
5,PolQ/PolIE,binds
6,RPA1 (from UniProt Q384B5),no binding
7,RPA3 (from UniProt Q38DK0),no binding
8,TIF2 (from UniProt Q57XY9),binds
9,TelAP1 (from UniProt Q383U2),binds
10,TelAP2 (from UniProt Q586Z9),binds
11,TelAP3,binds
12,ZC3H39 (from UniProt Q388B3),binds
13,ZC3H40 (from UniProt Q388B1),binds
14,"RAP1 (protein, UniProt C1JEX5 1-855) MTDVDGGSGASWKRLRFFVCADTLLTFQPVDSSHLEGRPGQPEQRYLLVDGEYRPITSYPTSSLFLETLKLAGSTVVVIAPWKRAKTKKLLSLFGWTAFDEIRSIHPEPGRDKLHLACIGCSADEYSTSVIVATSRADWSPSMYPQLVEVKHGVNQVPHSLALLRALSSCLRLAEWQVRLPHVPISSCATLCRSRLFSHCRFFLEPVASEDATVALSINEHGGYIVTRREDATHCVVSGSLPNLPGDISNLPPGGCAAKAVKECSVLPTSAEGRSAEPKSAKVDTDSVSLVKNQVDESDDSIKDEFSYSAGNAATAMVECGDEGVWNEENADDEDPVTMIPPGTFSEDDEDDAPGGLEEADGETVTTVTTQWLKDCAEGLFMYPPQVSHTSKDGSDWNITGLLLATILPTSDAEPLLLSSFNTFAERSGFEPLQLNSADEGGLAEVMQRQWGGVLCMEEKDGDFLLSQTNIYTEAFSDEMDKHLTFVANRFCEAWKDAVQRRRALLGSDAGTQTTVSITVTFGTNTEVEVAPSVQPPPPPPPAPQPTTASAAANEGSKESATPALPFLMRALGPAEWAKEVEAPRSPPPSAVPDIPLKQDPVPSGEGVATAENSVGNDQKESTSRQVAGDAGDTANVAEATEEIAALDQPFEKCFIPTEALGSDREGLDRTQLERQLPFRNYPIKLNVSKSGIFCQFPTVSDAKRFYEEGTVEILNRSLPIKPVFEKRNETVAPAERKRRRSVSPGGVHPQTAAVSALSRRGIQGATYARTQRSRTDNGWKAEGDRNPFVLTEEENSLLTSLGITYTYALENVPLLEHYAQKDLSSKVYRKEKGVLVKMLEKLKAVKGTTSKAPQ",binds
